This is one part of the list. The calls rarely recur for the same compound in another form.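 In K562 cells expressing nanoluciferase-fused kinases, luminescence was recorded at 4 h intervals between 2 and 18 h, normalized as percent of control with DMSO at 100% and a positive control at 0%. A significant (2 sigma) signal drop marks a time point as decreased. The authors' rule for a hit is not shown and takes in more than the number of time points.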
Legend:
Test in all cases: kinase-Nluc reporter destabilization hit call (1 = scored as downregulated) (binary); higher = compound decreases kinase abundance
Details in all cases: K562; 2-18 h
BRAF_V600E = tested on: BRAF_V600E
BTK = BTK (UniProt Q06187)
CAMK2A = CAMK2A (UniProt Q9UQM7)
CAMK2G = CAMK2G (UniProt Q13555)
CDK10 = CDK10 (UniProt Q15131)
CDK2 = CDK2 (UniProt P24941)
CDK3 = CDK3 (UniProt Q00526)
CDK4 = CDK4 (UniProt P11802)
CDK5 = CDK5 (UniProt Q00535)
CDK6 = CDK6 (UniProt Q00534)
CDK7 = CDK7 (UniProt P50613)
CDK9 = CDK9 (UniProt P50750)
CHEK2 = CHEK2 (UniProt O96017)
CSF1R = CSF1R (UniProt P07333)
CSK = CSK (UniProt P41240)
CSNK1A1 = CSNK1A1 (UniProt P48729)
CSNK1D = CSNK1D (UniProt P48730)
DDR1 = DDR1 (UniProt Q08345)
DYRK1B = DYRK1B (UniProt Q9Y463)
DYRK2 = DYRK2 (UniProt Q92630)

By UniProt entry, the sequences of proteins in these tests, tags left out. Where a name states a change or a piece, a line headed by the entry shows the natural chain unless it says otherwise.
UniProt Q06187: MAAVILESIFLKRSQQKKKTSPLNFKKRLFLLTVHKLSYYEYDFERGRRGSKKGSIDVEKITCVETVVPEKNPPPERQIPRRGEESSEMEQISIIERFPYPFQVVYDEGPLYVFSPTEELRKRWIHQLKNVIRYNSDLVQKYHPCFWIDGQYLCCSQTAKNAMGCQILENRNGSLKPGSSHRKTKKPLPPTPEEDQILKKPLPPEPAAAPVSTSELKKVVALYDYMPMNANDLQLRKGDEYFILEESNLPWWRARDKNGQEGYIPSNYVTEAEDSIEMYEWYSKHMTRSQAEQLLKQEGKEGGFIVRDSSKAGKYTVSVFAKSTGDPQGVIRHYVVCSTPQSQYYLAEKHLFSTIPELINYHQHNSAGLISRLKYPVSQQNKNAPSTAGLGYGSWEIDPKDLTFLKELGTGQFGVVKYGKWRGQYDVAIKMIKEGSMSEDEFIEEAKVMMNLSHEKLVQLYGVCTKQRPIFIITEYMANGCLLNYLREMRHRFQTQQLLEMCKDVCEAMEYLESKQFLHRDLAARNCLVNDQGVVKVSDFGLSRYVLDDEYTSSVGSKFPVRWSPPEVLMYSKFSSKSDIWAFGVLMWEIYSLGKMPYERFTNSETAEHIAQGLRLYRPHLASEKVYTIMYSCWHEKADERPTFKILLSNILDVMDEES
UniProt Q9UQM7, whole entry: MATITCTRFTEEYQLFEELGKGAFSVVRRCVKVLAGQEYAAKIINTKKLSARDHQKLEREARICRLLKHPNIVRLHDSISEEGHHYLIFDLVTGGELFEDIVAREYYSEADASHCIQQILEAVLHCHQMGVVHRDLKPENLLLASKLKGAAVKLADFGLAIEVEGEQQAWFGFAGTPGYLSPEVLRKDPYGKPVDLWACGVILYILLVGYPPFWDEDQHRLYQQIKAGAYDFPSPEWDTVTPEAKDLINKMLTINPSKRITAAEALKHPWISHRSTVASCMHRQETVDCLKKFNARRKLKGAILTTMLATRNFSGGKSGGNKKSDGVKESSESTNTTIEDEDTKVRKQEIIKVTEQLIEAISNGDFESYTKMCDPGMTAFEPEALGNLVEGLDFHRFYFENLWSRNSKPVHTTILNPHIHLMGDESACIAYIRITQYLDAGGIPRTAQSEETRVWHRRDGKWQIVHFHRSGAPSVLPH
UniProt Q13555: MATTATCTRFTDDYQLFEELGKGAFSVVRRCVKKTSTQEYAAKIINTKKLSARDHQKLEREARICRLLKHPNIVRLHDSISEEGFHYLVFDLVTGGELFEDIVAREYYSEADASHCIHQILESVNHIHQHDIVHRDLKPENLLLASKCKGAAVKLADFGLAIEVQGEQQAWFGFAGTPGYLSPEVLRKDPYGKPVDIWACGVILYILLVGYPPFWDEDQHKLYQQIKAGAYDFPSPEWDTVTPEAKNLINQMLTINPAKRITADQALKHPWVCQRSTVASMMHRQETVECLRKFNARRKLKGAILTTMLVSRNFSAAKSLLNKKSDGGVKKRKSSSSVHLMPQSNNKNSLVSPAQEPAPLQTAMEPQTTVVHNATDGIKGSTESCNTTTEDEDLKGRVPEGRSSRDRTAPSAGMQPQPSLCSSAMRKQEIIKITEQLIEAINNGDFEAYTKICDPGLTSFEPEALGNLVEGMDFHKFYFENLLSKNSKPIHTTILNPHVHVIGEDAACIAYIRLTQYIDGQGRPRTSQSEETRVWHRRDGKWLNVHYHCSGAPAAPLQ
UniProt Q15131: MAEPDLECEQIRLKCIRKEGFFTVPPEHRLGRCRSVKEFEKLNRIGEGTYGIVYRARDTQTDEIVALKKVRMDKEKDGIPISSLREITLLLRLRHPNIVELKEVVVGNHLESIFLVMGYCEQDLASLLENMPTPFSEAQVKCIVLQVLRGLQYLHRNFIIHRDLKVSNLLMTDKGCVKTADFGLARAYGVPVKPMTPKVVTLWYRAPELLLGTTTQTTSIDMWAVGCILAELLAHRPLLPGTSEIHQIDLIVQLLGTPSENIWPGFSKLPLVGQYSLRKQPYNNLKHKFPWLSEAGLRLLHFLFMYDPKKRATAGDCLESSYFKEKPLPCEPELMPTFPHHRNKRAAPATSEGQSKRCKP
UniProt Q00526: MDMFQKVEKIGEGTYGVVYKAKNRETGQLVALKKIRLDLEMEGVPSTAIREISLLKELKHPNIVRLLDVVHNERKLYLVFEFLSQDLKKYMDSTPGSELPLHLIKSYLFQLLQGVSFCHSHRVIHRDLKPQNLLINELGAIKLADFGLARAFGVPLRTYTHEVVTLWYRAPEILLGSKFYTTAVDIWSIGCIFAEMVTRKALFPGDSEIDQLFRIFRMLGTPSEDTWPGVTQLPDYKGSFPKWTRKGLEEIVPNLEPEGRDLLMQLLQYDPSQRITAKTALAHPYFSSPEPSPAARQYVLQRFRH
UniProt P11802: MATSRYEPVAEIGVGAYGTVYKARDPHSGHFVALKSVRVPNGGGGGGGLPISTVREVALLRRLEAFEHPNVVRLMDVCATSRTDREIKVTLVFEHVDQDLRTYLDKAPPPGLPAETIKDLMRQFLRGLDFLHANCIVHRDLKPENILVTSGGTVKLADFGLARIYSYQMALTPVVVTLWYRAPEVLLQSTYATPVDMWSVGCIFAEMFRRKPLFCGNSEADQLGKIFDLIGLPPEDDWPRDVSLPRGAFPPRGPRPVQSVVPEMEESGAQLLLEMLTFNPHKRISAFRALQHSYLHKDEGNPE
UniProt P50613: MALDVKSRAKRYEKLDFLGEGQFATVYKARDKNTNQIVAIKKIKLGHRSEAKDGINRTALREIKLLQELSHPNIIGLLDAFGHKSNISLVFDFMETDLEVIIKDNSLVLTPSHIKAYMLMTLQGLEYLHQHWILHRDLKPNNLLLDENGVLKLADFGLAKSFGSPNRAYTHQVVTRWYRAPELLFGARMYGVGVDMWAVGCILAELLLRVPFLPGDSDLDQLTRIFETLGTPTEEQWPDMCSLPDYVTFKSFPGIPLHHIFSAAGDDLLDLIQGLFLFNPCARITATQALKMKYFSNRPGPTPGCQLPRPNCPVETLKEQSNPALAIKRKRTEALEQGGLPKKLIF
UniProt P50750, whole entry: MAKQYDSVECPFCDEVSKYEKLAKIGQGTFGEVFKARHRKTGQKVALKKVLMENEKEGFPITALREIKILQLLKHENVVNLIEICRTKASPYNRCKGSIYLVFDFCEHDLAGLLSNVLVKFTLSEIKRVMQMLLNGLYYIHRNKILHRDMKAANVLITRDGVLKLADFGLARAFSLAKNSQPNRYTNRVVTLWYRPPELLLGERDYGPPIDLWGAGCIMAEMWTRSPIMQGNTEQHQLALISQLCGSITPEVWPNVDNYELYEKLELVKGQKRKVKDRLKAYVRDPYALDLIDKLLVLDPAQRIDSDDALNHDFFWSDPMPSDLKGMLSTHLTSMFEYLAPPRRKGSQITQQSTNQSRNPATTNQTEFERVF
UniProt O96017, whole entry: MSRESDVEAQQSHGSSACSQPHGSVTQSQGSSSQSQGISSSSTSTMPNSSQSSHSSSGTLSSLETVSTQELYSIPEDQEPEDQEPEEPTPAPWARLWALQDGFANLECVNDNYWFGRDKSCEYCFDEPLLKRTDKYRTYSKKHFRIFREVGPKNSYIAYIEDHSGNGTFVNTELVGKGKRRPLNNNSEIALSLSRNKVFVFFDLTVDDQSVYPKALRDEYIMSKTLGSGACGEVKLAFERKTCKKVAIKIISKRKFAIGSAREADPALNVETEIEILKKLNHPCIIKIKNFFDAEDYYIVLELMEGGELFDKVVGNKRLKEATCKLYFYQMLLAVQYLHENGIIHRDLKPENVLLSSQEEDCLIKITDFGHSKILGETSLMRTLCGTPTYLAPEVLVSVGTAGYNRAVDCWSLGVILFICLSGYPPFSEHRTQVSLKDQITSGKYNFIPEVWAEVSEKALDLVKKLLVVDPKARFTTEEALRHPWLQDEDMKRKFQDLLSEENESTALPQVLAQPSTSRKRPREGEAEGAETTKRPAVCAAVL
UniProt P41240: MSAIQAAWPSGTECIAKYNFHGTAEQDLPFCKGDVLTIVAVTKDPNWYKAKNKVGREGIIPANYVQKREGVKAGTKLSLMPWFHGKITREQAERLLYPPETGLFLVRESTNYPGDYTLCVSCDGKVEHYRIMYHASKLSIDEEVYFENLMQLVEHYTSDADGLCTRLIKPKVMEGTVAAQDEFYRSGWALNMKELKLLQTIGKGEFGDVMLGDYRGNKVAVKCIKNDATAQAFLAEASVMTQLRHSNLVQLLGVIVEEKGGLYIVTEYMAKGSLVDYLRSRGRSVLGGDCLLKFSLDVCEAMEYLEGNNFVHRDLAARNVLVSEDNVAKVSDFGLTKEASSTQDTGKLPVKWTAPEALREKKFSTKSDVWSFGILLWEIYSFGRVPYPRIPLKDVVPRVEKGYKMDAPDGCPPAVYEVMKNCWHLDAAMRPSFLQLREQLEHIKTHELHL
UniProt P48729: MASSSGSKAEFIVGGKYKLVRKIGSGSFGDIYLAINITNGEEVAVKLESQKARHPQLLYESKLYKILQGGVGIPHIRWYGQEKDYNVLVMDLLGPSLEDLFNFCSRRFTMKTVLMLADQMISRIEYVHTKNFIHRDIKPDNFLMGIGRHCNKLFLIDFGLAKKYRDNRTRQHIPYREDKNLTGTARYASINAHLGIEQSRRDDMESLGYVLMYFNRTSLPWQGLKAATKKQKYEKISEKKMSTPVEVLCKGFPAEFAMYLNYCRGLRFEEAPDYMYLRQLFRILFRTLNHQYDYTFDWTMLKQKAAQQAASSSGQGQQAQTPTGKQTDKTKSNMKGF
UniProt P48730: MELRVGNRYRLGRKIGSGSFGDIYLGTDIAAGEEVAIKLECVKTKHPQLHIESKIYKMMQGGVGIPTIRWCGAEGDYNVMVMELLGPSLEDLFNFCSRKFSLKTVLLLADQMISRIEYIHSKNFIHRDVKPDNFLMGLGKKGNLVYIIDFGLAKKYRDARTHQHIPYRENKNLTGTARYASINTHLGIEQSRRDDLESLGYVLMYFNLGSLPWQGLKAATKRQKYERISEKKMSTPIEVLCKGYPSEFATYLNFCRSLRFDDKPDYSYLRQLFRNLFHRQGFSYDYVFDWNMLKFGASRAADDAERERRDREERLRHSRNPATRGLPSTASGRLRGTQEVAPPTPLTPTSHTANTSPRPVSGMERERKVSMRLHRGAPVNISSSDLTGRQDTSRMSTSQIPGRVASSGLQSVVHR
UniProt Q9Y463, whole entry, looked up: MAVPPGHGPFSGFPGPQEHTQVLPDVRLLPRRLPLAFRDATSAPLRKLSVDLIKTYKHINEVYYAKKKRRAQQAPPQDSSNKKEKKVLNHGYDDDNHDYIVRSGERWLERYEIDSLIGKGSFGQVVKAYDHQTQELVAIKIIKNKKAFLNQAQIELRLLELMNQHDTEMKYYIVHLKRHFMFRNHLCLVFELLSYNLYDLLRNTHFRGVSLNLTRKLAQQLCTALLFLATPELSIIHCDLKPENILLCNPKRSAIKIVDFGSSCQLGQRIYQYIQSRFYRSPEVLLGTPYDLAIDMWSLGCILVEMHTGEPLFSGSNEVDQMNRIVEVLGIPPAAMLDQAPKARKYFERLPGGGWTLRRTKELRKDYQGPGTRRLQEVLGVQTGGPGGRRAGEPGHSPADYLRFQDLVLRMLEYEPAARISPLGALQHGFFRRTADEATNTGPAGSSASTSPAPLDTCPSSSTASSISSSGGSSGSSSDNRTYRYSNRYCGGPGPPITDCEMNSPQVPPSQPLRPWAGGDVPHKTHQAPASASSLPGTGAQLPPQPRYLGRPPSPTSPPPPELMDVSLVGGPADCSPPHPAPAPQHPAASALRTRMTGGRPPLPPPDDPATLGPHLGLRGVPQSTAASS
UniProt Q92630: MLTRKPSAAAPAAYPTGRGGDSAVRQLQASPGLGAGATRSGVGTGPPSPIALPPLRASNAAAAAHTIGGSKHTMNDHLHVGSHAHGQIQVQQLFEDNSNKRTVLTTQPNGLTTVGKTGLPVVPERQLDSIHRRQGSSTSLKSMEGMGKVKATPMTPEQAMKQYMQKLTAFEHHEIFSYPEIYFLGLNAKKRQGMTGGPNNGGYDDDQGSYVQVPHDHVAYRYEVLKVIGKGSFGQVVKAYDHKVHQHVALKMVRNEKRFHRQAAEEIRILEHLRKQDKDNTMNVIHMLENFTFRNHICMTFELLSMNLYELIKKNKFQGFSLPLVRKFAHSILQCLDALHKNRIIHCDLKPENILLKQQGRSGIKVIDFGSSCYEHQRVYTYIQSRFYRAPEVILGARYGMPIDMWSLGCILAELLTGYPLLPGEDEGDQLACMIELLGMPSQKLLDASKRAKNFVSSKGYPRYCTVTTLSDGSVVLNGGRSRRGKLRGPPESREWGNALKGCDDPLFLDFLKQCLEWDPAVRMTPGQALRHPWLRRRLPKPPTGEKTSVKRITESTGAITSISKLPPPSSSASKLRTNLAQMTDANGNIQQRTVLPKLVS

Measured: kinase-Nluc reporter destabilization hit call

COc1cccc(-n2c(=O)[nH]c3cc(Cl)n(-c4ccc(-c5cccc(OC)c5O)cc4)c3c2=O)c1 (2.5 µM)
inactive: BRAF_V600E 0 | BTK 0 | CAMK2A 0 | CAMK2G 0 | CDK10 = 0 | CDK2 = 0 | CDK3 = 0 | CDK4 = 0 | CDK5 = 0 | CDK6 = 0 | CDK7 = 0 | CDK9 = 0 | CHEK2 = 0 | CSF1R 0 | CSK 0 | CSNK1A1 = 0 | CSNK1D 0 | DDR1 = 0 | DYRK1B 0 | DYRK2 = 0

Cc1ccc(Nc2cc(-c3cccc(N4C(=O)c5ccccc5C4=O)c3)ncn2)cc1NS(C)(=O)=O (10 µM)
inactive: BRAF_V600E 0 | BTK 0 | CAMK2A 0 | CAMK2G 0 | CDK10 = 0 | CDK2 = 0 | CDK3 = 0 | CDK4 = 0 | CDK5 = 0 | CDK6 = 0 | CDK7 = 0 | CDK9 = 0 | CHEK2 = 0 | CSF1R 0 | CSK 0 | CSNK1A1 = 0 | CSNK1D 0 | DDR1 = 0 | DYRK1B 0 | DYRK2 = 0

C[C@@H]1O[C@@H](O[C@H]2[C@H](Oc3cc(O)c4c(=O)cc(-c5ccc(O)cc5)oc4c3)O[C@H](CO)[C@@H](O)[C@@H]2O)[C@H](O)[C@H](O)[C@H]1O [Rhoifolin] (10 µM)
inactive: BRAF_V600E 0 | BTK 0 | CAMK2A 0 | CAMK2G 0 | CDK10 = 0 | CDK2 = 0 | CDK3 = 0 | CDK4 = 0 | CDK5 = 0 | CDK6 = 0 | CDK7 = 0 | CDK9 = 0 | CHEK2 = 0 | CSF1R 0 | CSK 0 | CSNK1A1 = 0 | CSNK1D 0 | DDR1 = 0 | DYRK1B 0 | DYRK2 = 0

Cc1ccc(-c2c(C(=O)CF)n(CCCO)c3ncnc(N)c23)cc1 (10 µM)
inactive: BRAF_V600E 0 | BTK 0 | CAMK2A 0 | CAMK2G 0 | CDK10 = 0 | CDK2 = 0 | CDK3 = 0 | CDK4 = 0 | CDK5 = 0 | CDK6 = 0 | CDK7 = 0 | CDK9 = 0 | CHEK2 = 0 | CSF1R 0 | CSK 0 | CSNK1A1 = 0 | CSNK1D 0 | DDR1 = 0 | DYRK1B 0 | DYRK2 = 0

N#Cc1ccc2ncnc(NC3CCC(N4CCOCC4)CC3)c2c1 (stereo not given) (10 µM)
inactive: BRAF_V600E 0 | BTK 0 | CAMK2A 0 | CAMK2G 0 | CDK10 = 0 | CDK2 = 0 | CDK3 = 0 | CDK4 = 0 | CDK5 = 0 | CDK6 = 0 | CDK7 = 0 | CDK9 = 0 | CHEK2 = 0 | CSF1R 0 | CSK 0 | CSNK1A1 = 0 | CSNK1D 0 | DDR1 = 0 | DYRK1B 0 | DYRK2 = 0

O=C(Nc1cc(Oc2cc(F)c(NC(=O)C3(C(=O)Nc4ccc(F)cc4)CC3)cc2F)ccn1)C1CC1 [Altiratinib] (10 µM)
inactive: BRAF_V600E 0 | BTK 0 | CAMK2A 0 | CAMK2G 0 | CDK10 = 0 | CDK2 = 0 | CDK3 = 0 | CDK4 = 0 | CDK5 = 0 | CDK6 = 0 | CDK7 = 0 | CDK9 = 0 | CHEK2 = 0 | CSF1R 0 | CSK 0 | CSNK1A1 = 0 | CSNK1D 0 | DDR1 = 0 | DYRK1B 0 | DYRK2 = 0

Cc1ccc(Oc2nc3cc(-c4ccc5c(ccn5C)c4)c(Cl)cc3[nH]2)cc1C(=O)O (10 µM)
inactive: BRAF_V600E 0 | BTK 0 | CAMK2A 0 | CAMK2G 0 | CDK10 = 0 | CDK2 = 0 | CDK3 = 0 | CDK4 = 0 | CDK5 = 0 | CDK6 = 0 | CDK7 = 0 | CDK9 = 0 | CHEK2 = 0 | CSF1R 0 | CSK 0 | CSNK1A1 = 0 | CSNK1D 0 | DDR1 = 0 | DYRK1B 0 | DYRK2 = 0

Nc1cc(Nc2ccc(S(N)(=O)=O)cc2)ncn1 (10 µM)
inactive: BRAF_V600E 0 | BTK 0 | CAMK2A 0 | CAMK2G 0 | CDK10 = 0 | CDK2 = 0 | CDK3 = 0 | CDK4 = 0 | CDK5 = 0 | CDK6 = 0 | CDK7 = 0 | CDK9 = 0 | CHEK2 = 0 | CSF1R 0 | CSK 0 | CSNK1A1 = 0 | CSNK1D 0 | DDR1 = 0 | DYRK1B 0 | DYRK2 = 0

COC1(C(=O)N2Cc3nc(Cl)nc(N[C@H](C)c4cc(N)cc(C(F)(F)F)c4)c3C2)CCOCC1 (10 µM)
inactive: BRAF_V600E 0 | BTK 0 | CAMK2A 0 | CAMK2G 0 | CDK10 = 0 | CDK2 = 0 | CDK3 = 0 | CDK4 = 0 | CDK5 = 0 | CDK6 = 0 | CDK7 = 0 | CDK9 = 0 | CHEK2 = 0 | CSF1R 0 | CSK 0 | CSNK1A1 = 0 | CSNK1D 0 | DDR1 = 0 | DYRK1B 0 | DYRK2 = 0

CNC(=O)c1ccc(-c2cnc3cnc(C(=O)N(C)c4ccc(Cl)cc4)cn23)cc1 (2.5 µM)
inactive: BRAF_V600E 0 | BTK 0 | CAMK2A 0 | CAMK2G 0 | CDK10 = 0 | CDK2 = 0 | CDK3 = 0 | CDK4 = 0 | CDK5 = 0 | CDK6 = 0 | CDK7 = 0 | CDK9 = 0 | CHEK2 = 0 | CSF1R 0 | CSK 0 | CSNK1A1 = 0 | CSNK1D 0 | DDR1 = 0 | DYRK1B 0 | DYRK2 = 0

O=C(NC(NC(=S)Nc1ccc(F)c([N+](=O)[O-])c1)C(Cl)(Cl)Cl)C(c1ccccc1)c1ccccc1 (stereo not given) (10 µM)
inactive: BRAF_V600E 0 | BTK 0 | CAMK2A 0 | CAMK2G 0 | CDK10 = 0 | CDK2 = 0 | CDK3 = 0 | CDK4 = 0 | CDK5 = 0 | CDK6 = 0 | CDK7 = 0 | CDK9 = 0 | CHEK2 = 0 | CSF1R 0 | CSK 0 | CSNK1A1 = 0 | CSNK1D 0 | DDR1 = 0 | DYRK1B 0 | DYRK2 = 0

Nc1nccc(Oc2ccc(NC(=O)c3cn(COP(=O)(O)O)cc(-c4ccc(F)cc4)c3=O)cc2F)c1Cl (10 µM)
inactive: BRAF_V600E 0 | BTK 0 | CAMK2A 0 | CAMK2G 0 | CDK10 = 0 | CDK2 = 0 | CDK3 = 0 | CDK4 = 0 | CDK5 = 0 | CDK6 = 0 | CDK7 = 0 | CDK9 = 0 | CHEK2 = 0 | CSF1R 0 | CSK 0 | CSNK1A1 = 0 | CSNK1D 0 | DDR1 = 0 | DYRK1B 0 | DYRK2 = 0

O=C1NC(=O)/C(=C/c2ccc3c(c2)OC(F)(F)O3)S1 (10 µM)
inactive: BRAF_V600E 0 | BTK 0 | CAMK2A 0 | CAMK2G 0 | CDK10 = 0 | CDK2 = 0 | CDK3 = 0 | CDK4 = 0 | CDK5 = 0 | CDK6 = 0 | CDK7 = 0 | CDK9 = 0 | CHEK2 = 0 | CSF1R 0 | CSK 0 | CSNK1A1 = 0 | CSNK1D 0 | DDR1 = 0 | DYRK1B 0 | DYRK2 = 0

COCCOc1ccc(-c2cn(-c3ccccc3)c3nc[nH]c(=O)c23)cc1 (10 µM)
inactive: BRAF_V600E 0 | BTK 0 | CAMK2A 0 | CAMK2G 0 | CDK10 = 0 | CDK2 = 0 | CDK3 = 0 | CDK4 = 0 | CDK5 = 0 | CDK6 = 0 | CDK7 = 0 | CDK9 = 0 | CHEK2 = 0 | CSF1R 0 | CSK 0 | CSNK1A1 = 0 | CSNK1D 0 | DDR1 = 0 | DYRK1B 0 | DYRK2 = 0

Source: the supplement of paper PMC12823440, “Inhibitors supercharge kinase turnover through native proteolytic circuits” (Nature, 2025)
